In PubChem BioAssay AID256 (DTP/NCI, 2004):
The list shows only some results of the screen, not a fair sample: it is rich in T/C values a quarter to a half above the control, in often repeated tests (any T/C) and in doses without a T/C. Other doses and runs of a compound stand elsewhere. T/C gives the treated animals as a percentage of the vehicle group. Some doses have a count of surviving animals in place of a T/C: the source files T/C as zero there, which appears to mark a toxic dose or a test without result, not a measured value. Some doses without a T/C left all or most animals alive at the check, yet need not have been tolerated: the source hardly ever lists a survival T/C far under the control, and the zero likely stands for such cases as well. Counts of survivors are from the toxicity check (mostly the fifth day) where no day follows; animals may have died later. Schedule codes are those of the source, taken here to give the interval after Q, in days (D) or hours (H), and the number of doses after X. Some entries hold several experiments; the values are given in rising order. For survival time, the PubChem record calls one and a half times the control and up active, and a quarter to a half above the control has no call in these data; cut-offs in other NCI protocols can differ. Some T/C values carry the count of animals alive at the toxicity check (mostly the fifth day); where none is given, no animal had died by that day.

Test system: CD2F1 mice, L1210 leukemia ip, survival T/C
Test: NCI In Vivo Anticancer Drug Screen. Data for tumor model L1210 Leukemia (intraperitoneal) in CD2F1 (CDF1) mice
Settings: higher T/C = longer survival
Summary of the method: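 Each value reflects a quotient of treated over vehicle control outcomes in mice with a transplanted tumor.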

[1] = T/C endpoint: mean survival time, dose: 100.0 mg/kg/injection, schedule: Q01DX009 (ip), vehicle: saline with Tween-80
[2] = T/C endpoint: mean survival time, dose: 400.0 mg/kg/injection, schedule: Q01DX009 (ip), vehicle: saline with Tween-80
[3] = T/C endpoint: mean survival time, dose: 400.0 mg/kg/injection, schedule: Q01DX001 (ip), vehicle: saline with Tween-80
[4] = T/C endpoint: mean survival time, dose: 400.0 mg/kg/injection, schedule: Q04DX003 (ip), vehicle: saline with Tween-80
[5] = T/C endpoint: mean survival time, dose: 200.0 mg/kg/injection, schedule: Q01DX005 (ip), vehicle: water
[6] = T/C endpoint: mean survival time, dose: 200.0 mg/kg/injection, schedule: Q01DX009 (ip), vehicle: saline with Tween-80
[7] = T/C endpoint: mean survival time, dose: 200.0 mg/kg/injection, schedule: Q04DX003 (ip), vehicle: saline with Tween-80
[8] = T/C endpoint: mean survival time, dose: 400.0 mg/kg/injection, schedule: Q01DX001 (ip), vehicle: saline

NC(N)=NCc1ccccc1
survivor count (T/C endpoint: mean survival time, dose: 100.0 mg/kg/injection, schedule: Q04DX003 (ip), vehicle: saline): 2 of 6 and 3 of 6
survivor count (T/C endpoint: mean survival time, dose: 200.0 mg/kg/injection, schedule: Q04DX003 (ip), vehicle: saline): 0 of 6 and 1 of 6
survivor count (T/C endpoint: mean survival time, dose: 400.0 mg/kg/injection, schedule: Q04DX003 (ip), vehicle: saline): 0 of 6

CCn1cnc2c(=S)nc[nH]c21
T/C (T/C endpoint: mean survival time, dose: 18.8 mg/kg/injection, schedule: Q03HX024 (ip), vehicle: saline): 126 % of control
T/C (T/C endpoint: mean survival time, dose: 30.0 mg/kg/injection, schedule: Q03HX008 (ip), vehicle: saline): 131 % of control
T/C (T/C endpoint: mean survival time, dose: 37.5 mg/kg/injection, schedule: Q03HX016 (ip), vehicle: saline): 135 % of control
T/C (T/C endpoint: mean survival time, dose: 60.0 mg/kg/injection, schedule: Q01DX009 (ip), vehicle: saline): 140 % of control
T/C (T/C endpoint: mean survival time, dose: 75.0 mg/kg/injection, schedule: Q01DX007 (ip), vehicle: saline): 141 % of control
T/C (T/C endpoint: mean survival time, dose: 75.0 mg/kg/injection, schedule: Q01DX009 (ip), vehicle: saline): 138 % of control
T/C (T/C endpoint: mean survival time, dose: 90.0 mg/kg/injection, schedule: Q03HX008 (ip), vehicle: saline): 148 % of control
T/C (T/C endpoint: mean survival time, dose: 150.0 mg/kg/injection, schedule: Q08DX002 (ip), vehicle: saline): 127 % of control
survivor count (T/C endpoint: mean survival time, dose: 240.0 mg/kg/injection, schedule: Q01DX009 (ip), vehicle: saline): 5 of 10
T/C (T/C endpoint: mean survival time, dose: 300.0 mg/kg/injection, schedule: Q01DX001 (ip), vehicle: saline): 145 % of control
survivor count (T/C endpoint: mean survival time, dose: 300.0 mg/kg/injection, schedule: Q01DX007 (ip), vehicle: saline): 3 of 6
survivor count (T/C endpoint: mean survival time, dose: 300.0 mg/kg/injection, schedule: Q01DX009 (ip), vehicle: saline): 3 of 6
T/C (T/C endpoint: mean survival time, dose: 300.0 mg/kg/injection, schedule: Q03DX003 (ip), vehicle: saline): 126 % of control
T/C (T/C endpoint: mean survival time, dose: 300.0 mg/kg/injection, schedule: Q04DX003 (ip), vehicle: saline): 138 % of control
T/C (T/C endpoint: mean survival time, dose: 600.0 mg/kg/injection, schedule: Q01DX001 (ip), vehicle: saline): 145 % of control [7 of 10 alive]
T/C (T/C endpoint: median survival time, dose: 50.0 mg/kg/injection, schedule: Q01DX009 (ip), vehicle: saline with Tween-80): 149 % of control
T/C (T/C endpoint: median survival time, dose: 62.5 mg/kg/injection, schedule: Q01DX009 (ip), vehicle: saline): 137 % of control
survivor count (T/C endpoint: median survival time, dose: 125.0 mg/kg/injection, schedule: Q01DX009 (ip), vehicle: saline): 3 of 6
survivor count (T/C endpoint: median survival time, dose: 250.0 mg/kg/injection, schedule: Q01DX009 (ip), vehicle: saline): 4 of 6

CC1(C)N=C(N)N=C(N)N1c1ccc(OCCNS(=O)(=O)c2cccc(S(=O)(=O)F)c2)c(Cl)c1
T/C (T/C endpoint: mean survival time, dose: 50.0 mg/kg/injection, schedule: Q01DX009 (ip), vehicle: saline with Tween-80): 129 % of control
T/C [1]: 130 % of control
survivor count [2]: 0 of 6

CN(C)S(=O)(=O)c1ccc(Cl)c([N+](=O)[O-])c1
survivor count (T/C endpoint: mean survival time, dose: 400.0 mg/kg/injection, schedule: Q04DX002 (ip), vehicle: Klucel (hydroxypropylcellulose) (HPC)): 0 of 3

CCCCCCCCCCCCCCCC[N+]1(CCC)CCSCC1
survivor count [3]: 0 of 6

CC(=O)Nc1ccc([N+](=O)[O-])c(C(F)(F)F)c1
survivor count [4]: 2 of 6

CCC(C)C1NC(=O)C(NC(=O)c2c3nc4c(C(=O)NC5C(=O)NC(C(C)CC)C(=O)N6CCCC6C(=O)N(C)CC(=O)N(C)C(C(C)C)C(=O)OC5C)cc([N+](=O)[O-])c(C)c4oc-3c(C)c(=O)c2N)C(C)OC(=O)C(C(C)C)N(C)C(=O)CN(C)C(=O)C2CCCN2C1=O (configuration not stated)
survivor count (T/C endpoint: mean survival time, dose: 0.8 mg/kg/injection, schedule: Q01DX009 (ip), vehicle: water): 6 of 6
survivor count (T/C endpoint: mean survival time, dose: 1.6 mg/kg/injection, schedule: Q01DX009 (ip), vehicle: water): 3 of 6

Nc1cc(OCc2ccccc2)c(N)c(N)n1
survivor count (T/C endpoint: mean survival time, dose: 25.0 mg/kg/injection, schedule: Q01DX005 (ip), vehicle: water): 1 of 3
survivor count (T/C endpoint: mean survival time, dose: 50.0 mg/kg/injection, schedule: Q01DX005 (ip), vehicle: water): 0 of 3
survivor count (T/C endpoint: mean survival time, dose: 100.0 mg/kg/injection, schedule: Q01DX005 (ip), vehicle: water): 0 of 3
survivor count [5]: 0 of 3
survivor count (T/C endpoint: mean survival time, dose: 400.0 mg/kg/injection, schedule: Q01DX005 (ip), vehicle: water): 0 of 3

CCC1(O)C(=O)OCc2c1cc1n(c2=O)Cc2cc3cc(Cl)ccc3nc2-1 (configuration not stated)
survivor count (T/C endpoint: median survival time, dose: 40.0 mg/kg/injection, schedule: Q04DX002 (ip), vehicle: saline with Tween-80): 6 of 6
survivor count (T/C endpoint: median survival time, dose: 80.0 mg/kg/injection, schedule: Q04DX002 (ip), vehicle: saline with Tween-80): 6 of 6

O=[N+]([O-])c1cccn2nc(C3OC(CO)C(O)C3O)nc12 (configuration not stated)
survivor count [5]: 2 of 6

CC(NC1CCCCC1)c1ccc(O)cc1O (configuration not stated)
survivor count (T/C endpoint: mean survival time, dose: 300.0 mg/kg/injection, schedule: Q01DX001 (ip), vehicle: other): 0 of 6

O=C(O)CC1(c2ccccc2)OC(=O)c2ccccc21 (configuration not stated)
survivor count [2]: 5 of 6

CC1(C)NC(=O)N(Br)C1=O
survivor count [2]: 0 of 6

C1=C\CCCCCCCC/1
survivor count [1]: 1 of 6
survivor count [6]: 1 of 6
survivor count [7]: 2 of 6
survivor count [2]: 0 of 6

COc1ccc(CCl)cc1CCl
survivor count [4]: 0 of 3

O=C1C=CC(=Nc2ccc(Cl)cc2)O1
survivor count [7]: 2 of 6

Cc1ccc(Cl)c2ccccc12
survivor count [6]: 3 of 6
survivor count [2]: 2 of 6

O=S(CC(O)c1ccccc1)c1ccccc1 (configuration not stated)
survivor count [4]: 5 of 6

O=C1NC(O)c2ccccc2O1 (configuration not stated)
T/C [2]: 130 % of control [5 of 6 alive]
survivor count [2]: 2 of 6

CO[C@@]12[C@@H]3N[C@@H]3CN1C1=C(C(=O)C(N3CCCC3)=C(C)C1=O)[C@@H]2COC(N)=O
T/C (T/C endpoint: median survival time, dose: 6.0 mg/kg/injection, schedule: Q01DX001 (ip), vehicle: saline with Tween-80): 133 and 139 % of control

COC(=O)c1c2ccccc2[n+](C)c2ccccc12
survivor count [8]: 2 of 6

Clc1nc(Cl)nc(-c2cccn2-c2ccccc2)n1
survivor count [6]: 0 of 6
survivor count [2]: 0 of 6

C=CCOP(=O)(OCC=C)C1(Cl)C(Cl)=C(Cl)C(=O)C(Cl)=C1Cl
survivor count [6]: 1 of 6
survivor count [2]: 0 of 6

C=CC1CC=CCC1 (configuration not stated)
survivor count [2]: 2 of 6

Cc1nc(C)c(Cc2ccccc2O)c(=O)[nH]1
survivor count (T/C endpoint: mean survival time, dose: 100.0 mg/kg/injection, schedule: Q01DX001 (ip), vehicle: saline): 3 of 6
survivor count [8]: 2 of 6

O=c1[nH]ccc(=S)[nH]1
survivor count [3]: 6 of 6

CN(C)C=Nc1cccc2[nH]c3ccccc3c12
survivor count [6]: 1 of 6
survivor count [3]: 1 of 6

CN(C)N=Nc1ccc(C#N)cc1
survivor count (T/C endpoint: mean survival time, dose: 177.0 mg/kg/injection, schedule: Q01DX009 (ip), vehicle: Klucel (hydroxypropylcellulose) (HPC)): 2 of 6
survivor count (T/C endpoint: mean survival time, dose: 266.0 mg/kg/injection, schedule: Q01DX009 (ip), vehicle: Klucel (hydroxypropylcellulose) (HPC)): 0 of 6
survivor count (T/C endpoint: mean survival time, dose: 400.0 mg/kg/injection, schedule: Q01DX009 (ip), vehicle: Klucel (hydroxypropylcellulose) (HPC)): 0 of 6
survivor count (T/C endpoint: mean survival time, dose: 600.0 mg/kg/injection, schedule: Q01DX009 (ip), vehicle: Klucel (hydroxypropylcellulose) (HPC)): 0 of 6

COC1/C=C/C=C(/C)Cc2cc(O)c(Cl)c(c2)N(C)C(=O)CC(OC(=O)C(C)C)C2(C)OC2C(C)C2CC1(O)NC(=O)O2 (configuration not stated)
T/C (T/C endpoint: mean survival time, dose: 0.25 mg/kg/injection, schedule: Q01DX009 (ip), vehicle: saline + alcohol): 127 % of control
survivor count (T/C endpoint: mean survival time, dose: 4.0 mg/kg/injection, schedule: Q01DX009 (ip), vehicle: saline + alcohol): 3 of 6
T/C (T/C endpoint: median survival time, dose: 0.25 mg/kg/injection, schedule: Q01DX009 (ip), vehicle: saline + alcohol): 126 % of control
survivor count (T/C endpoint: median survival time, dose: 4.0 mg/kg/injection, schedule: Q01DX009 (ip), vehicle: saline + alcohol): 10 of 10
